Where two headings read alike, the source gives them in different places. Structures were worked out from names or drawings and are uncertain.
Assays:
[1] = test system: IRE-1α-mediated XBP-1 splicing in human myeloma MM.1s cells; experiment: Cellular XBP-1 splicing assay in myeloma cells (RT-PCR); details: read-out: EC50_av, average EC50, endogenous XBP-1 splicing in myeloma cells, DTT stress
[2] = biological target: human IRE-1α (GST-IRE-1α) (Homo sapiens (Human), UniProt O75460); experiment: IRE-1α assay (cleavage of mini-XBP-1 mRNA stem-loop substrate); type: biochemical; details: read-out: IC50_av; average IC50 for inhibition of IRE-1α in vitro; tested form: HCl

Sequences of proteins named here, by UniProt entry; tags and fusion partners are left off. Residues count along the entry.
UniProt O75460, 19-977 limits assumed: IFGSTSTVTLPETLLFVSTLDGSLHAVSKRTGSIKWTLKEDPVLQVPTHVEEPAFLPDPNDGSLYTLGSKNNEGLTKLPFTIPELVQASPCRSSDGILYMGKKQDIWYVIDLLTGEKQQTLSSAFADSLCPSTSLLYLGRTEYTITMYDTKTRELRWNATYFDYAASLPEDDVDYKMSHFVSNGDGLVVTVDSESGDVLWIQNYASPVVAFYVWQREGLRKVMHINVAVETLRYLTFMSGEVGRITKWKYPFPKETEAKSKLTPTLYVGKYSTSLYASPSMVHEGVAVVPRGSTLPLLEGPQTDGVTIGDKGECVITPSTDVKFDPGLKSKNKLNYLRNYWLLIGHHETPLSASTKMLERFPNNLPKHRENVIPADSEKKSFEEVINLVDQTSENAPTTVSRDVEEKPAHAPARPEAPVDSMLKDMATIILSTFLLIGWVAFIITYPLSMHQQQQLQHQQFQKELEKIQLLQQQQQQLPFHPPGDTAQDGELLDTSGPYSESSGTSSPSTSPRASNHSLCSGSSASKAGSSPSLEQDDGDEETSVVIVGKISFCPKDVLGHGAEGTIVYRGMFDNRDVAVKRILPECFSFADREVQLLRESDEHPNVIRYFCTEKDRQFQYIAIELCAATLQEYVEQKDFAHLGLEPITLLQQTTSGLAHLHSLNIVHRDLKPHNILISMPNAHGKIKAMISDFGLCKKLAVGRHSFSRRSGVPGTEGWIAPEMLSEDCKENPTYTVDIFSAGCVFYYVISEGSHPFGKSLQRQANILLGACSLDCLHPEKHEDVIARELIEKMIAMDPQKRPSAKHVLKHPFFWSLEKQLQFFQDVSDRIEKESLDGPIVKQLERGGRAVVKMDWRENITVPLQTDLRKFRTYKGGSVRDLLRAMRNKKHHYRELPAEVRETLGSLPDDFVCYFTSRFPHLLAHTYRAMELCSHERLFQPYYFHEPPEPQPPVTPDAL

SMILES | EC50 ([1]; tested form: HCl) [µM] | IC50 [2] [µM] | EC50 [1] [µM]
O=Cc1c(O)ccc2cc(N3CCC(NCc4ccccc4)CC3)ccc12 [Compound 97] | > 10 |  | 
O=Cc1c(O)ccc2cc(N3CCCC(NCc4ccccn4)C3)ccc12 (stereo not shown) [Compound 108] | > 10 | < 1 | 
O=Cc1c(O)ccc2cc(N3CCC(NCc4ccccn4)CC3)ccc12 [Compound 114] | > 10 |  | 

Continued, values first:

EC50 ([1]; tested form: HCl) [µM] | IC50 [2] [µM] | EC50 [1] [µM] | SMILES
< 10 |  |  | O=Cc1c(O)ccc2cc(N3CCC(NCc4cccnc4)CC3)ccc12 [Compound 116]
 |  | > 10 | O=Cc1c(O)ccc2ccc(N3CCC(N4CCCCC4)C3)cc12 (stereo not shown) [Compound 137]
 |  | > 10 | CN(Cc1ccccc1)C1CCN(c2ccc3c(C=O)c(O)ccc3c2)C1 (stereo not shown) [Compound 146]

— patent US9493435B2, “IRE-1α inhibitors” (MannKing Corporation, priority 2009, dated 2016)
